In article PMC12396287:
No constants are given. Whether binding was seen depends on the method and setting. Binding seen in cells or lysates may run through a third protein. Some results given as binding are weak or reduced against the parent protein; the word gives no strength. Where a sequence is shown, tags or fusion partners need not be part of it.

Amino acid sequences for entries named in this document (tags omitted).
UniProt P25786: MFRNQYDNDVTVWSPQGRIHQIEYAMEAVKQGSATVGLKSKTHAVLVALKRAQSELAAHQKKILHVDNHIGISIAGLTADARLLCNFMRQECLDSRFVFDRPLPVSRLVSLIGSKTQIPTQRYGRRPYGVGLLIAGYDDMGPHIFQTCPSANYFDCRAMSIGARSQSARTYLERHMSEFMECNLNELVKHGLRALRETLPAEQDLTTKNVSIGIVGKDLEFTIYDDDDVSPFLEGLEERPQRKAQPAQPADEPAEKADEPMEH

Molecular target: T1, HA-FAM111B (wild-type) (human) (UniProt Q6SJ93)
T1 sequence: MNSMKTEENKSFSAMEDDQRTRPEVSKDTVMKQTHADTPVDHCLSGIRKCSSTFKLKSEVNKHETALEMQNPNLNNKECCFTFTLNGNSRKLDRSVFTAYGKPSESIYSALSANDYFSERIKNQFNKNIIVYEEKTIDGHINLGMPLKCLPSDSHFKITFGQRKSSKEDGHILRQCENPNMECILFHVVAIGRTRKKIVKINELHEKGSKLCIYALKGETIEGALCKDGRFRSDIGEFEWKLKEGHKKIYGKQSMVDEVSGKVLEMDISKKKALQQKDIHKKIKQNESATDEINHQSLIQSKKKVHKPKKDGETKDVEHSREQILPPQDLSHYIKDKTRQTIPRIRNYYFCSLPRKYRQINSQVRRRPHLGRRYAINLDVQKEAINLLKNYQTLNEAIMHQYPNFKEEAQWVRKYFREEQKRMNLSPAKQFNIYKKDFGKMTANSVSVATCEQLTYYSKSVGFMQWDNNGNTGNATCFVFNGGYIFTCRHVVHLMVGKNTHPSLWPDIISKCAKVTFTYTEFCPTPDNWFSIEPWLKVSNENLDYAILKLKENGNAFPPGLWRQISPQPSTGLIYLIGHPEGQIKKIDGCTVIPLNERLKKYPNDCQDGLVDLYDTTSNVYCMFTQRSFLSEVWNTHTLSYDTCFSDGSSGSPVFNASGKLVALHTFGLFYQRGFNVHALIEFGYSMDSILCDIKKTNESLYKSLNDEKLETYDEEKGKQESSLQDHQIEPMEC
Assay: co-IP; HA immunoprecipitation with anti-HA magnetic beads (μMACS HA Isolation Kit) from 2 mg lysate of transfected HeLa cells; lysis buffer with 10 mM N-ethylmaleimide, 10 μM MG-132, protease inhibitors; Western blot of the eluate

proteasome subunit PSMA1 (from UniProt P25786 1-263)
binding: binds
